Some of the results follow.
Tests used:
Experiment in all cases: log2 fold change, soluble protein after heating vs DMSO (PISA); higher = thermal stabilisation; K562 lysate, 10 uM; active = over 0.2 and 3.5 SD of the protein, either way, in both replicates (recomputed)
[1] = compound: C#Cc1cccc(Nc2ncnc3cc(OCCOC)c(OCCOC)cc23)c1 [erlotinib]
Procedure, shortened: (§1)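 Values give the log-two fold change in thermal stability against solvent controls, from duplicates. Crude K562 extract at 1 mg/mL protein, made by dounce homogenisation in PBS pH 7.4 with 1 mM MgCl2, was treated with 10 μM compound for 30 min. After 3 min heating across 48°C-58°C, aliquots were pooled, adjusted to 0.5% NP-40 at 4°C and centrifuged at 21,000xg for 90 min. The supernatant was measured by TMTpro 16plex LC-MS/MS with channel sums equalised.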

The chains behind the UniProt entries cited, without tags or fusion partners. Where a name states a change or a piece, a line headed by the entry shows the natural chain unless it says otherwise.
UniProt Q9P2R6: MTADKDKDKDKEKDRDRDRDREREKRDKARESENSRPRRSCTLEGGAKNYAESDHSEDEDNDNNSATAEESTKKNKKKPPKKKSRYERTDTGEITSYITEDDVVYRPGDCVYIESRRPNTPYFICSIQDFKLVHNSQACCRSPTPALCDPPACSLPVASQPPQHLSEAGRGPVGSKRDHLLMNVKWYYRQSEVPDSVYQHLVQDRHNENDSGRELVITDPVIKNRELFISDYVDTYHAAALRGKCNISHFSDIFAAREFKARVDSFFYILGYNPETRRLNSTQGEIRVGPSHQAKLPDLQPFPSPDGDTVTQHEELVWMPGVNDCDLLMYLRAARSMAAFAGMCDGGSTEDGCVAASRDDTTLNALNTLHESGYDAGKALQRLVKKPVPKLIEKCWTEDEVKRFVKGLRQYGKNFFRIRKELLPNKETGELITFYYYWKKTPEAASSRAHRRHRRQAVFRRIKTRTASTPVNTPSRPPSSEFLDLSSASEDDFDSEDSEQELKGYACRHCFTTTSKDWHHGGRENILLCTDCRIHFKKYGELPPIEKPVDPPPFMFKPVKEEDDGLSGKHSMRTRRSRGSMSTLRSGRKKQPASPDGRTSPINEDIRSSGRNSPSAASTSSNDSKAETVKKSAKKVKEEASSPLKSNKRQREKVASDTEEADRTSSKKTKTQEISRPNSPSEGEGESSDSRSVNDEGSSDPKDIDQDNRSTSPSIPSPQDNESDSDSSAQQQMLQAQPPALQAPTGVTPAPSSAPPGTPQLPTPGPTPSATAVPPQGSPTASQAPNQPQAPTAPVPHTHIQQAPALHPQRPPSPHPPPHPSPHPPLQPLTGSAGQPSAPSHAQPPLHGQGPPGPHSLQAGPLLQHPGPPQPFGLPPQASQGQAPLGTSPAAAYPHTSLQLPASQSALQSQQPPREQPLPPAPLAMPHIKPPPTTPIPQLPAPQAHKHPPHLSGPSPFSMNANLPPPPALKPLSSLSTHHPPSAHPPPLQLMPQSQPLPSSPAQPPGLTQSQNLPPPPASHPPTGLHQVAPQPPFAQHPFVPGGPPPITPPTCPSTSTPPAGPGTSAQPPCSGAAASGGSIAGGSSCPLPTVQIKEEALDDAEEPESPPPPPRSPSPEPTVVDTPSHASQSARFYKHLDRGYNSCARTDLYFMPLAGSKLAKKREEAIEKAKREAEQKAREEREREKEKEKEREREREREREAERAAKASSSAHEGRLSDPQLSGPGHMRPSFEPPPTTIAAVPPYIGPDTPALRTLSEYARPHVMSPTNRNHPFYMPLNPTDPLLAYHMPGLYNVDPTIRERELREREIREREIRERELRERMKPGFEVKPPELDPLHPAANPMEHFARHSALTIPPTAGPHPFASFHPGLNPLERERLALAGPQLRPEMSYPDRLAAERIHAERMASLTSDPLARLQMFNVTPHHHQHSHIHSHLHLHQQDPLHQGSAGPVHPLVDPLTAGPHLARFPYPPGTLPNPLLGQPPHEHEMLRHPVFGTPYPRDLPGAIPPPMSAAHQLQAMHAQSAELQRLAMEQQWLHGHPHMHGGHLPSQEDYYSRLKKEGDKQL
UniProt O43665: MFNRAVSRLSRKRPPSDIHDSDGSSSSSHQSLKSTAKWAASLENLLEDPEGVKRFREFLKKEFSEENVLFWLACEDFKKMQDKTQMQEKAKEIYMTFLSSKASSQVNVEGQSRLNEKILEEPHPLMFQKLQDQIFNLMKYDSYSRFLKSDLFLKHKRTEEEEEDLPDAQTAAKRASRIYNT
UniProt Q9UKL0, whole entry, looked up: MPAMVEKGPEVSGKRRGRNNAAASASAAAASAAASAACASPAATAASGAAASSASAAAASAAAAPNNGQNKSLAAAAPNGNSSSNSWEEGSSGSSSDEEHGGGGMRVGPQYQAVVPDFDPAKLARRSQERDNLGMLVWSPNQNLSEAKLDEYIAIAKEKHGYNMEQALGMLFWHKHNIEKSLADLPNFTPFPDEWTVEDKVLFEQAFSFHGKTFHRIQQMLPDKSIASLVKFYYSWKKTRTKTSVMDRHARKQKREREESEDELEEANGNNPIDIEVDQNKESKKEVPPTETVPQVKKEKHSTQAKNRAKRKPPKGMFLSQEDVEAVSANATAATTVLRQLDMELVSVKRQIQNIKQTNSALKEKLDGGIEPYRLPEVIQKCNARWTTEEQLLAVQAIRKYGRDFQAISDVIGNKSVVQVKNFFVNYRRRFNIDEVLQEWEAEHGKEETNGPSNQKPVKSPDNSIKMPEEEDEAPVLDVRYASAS
UniProt Q9HBH5: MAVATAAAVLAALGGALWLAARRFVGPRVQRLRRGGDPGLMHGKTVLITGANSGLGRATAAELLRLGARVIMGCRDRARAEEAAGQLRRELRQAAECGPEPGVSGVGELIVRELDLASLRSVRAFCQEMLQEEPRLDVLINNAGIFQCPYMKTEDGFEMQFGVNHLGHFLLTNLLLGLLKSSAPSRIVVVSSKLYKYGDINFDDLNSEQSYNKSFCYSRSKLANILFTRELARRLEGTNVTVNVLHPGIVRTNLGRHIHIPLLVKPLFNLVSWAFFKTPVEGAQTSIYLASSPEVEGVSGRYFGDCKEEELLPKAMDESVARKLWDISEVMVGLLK
UniProt Q9BWF3: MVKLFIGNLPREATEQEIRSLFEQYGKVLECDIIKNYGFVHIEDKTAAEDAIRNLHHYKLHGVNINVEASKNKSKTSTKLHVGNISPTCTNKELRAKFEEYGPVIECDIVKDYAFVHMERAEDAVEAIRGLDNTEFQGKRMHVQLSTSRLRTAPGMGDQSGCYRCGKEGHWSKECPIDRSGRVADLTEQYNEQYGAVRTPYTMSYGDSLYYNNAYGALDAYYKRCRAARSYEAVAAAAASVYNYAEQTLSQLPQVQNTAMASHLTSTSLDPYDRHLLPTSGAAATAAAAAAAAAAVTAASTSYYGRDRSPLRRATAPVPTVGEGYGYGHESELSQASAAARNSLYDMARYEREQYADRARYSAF
UniProt Q06330: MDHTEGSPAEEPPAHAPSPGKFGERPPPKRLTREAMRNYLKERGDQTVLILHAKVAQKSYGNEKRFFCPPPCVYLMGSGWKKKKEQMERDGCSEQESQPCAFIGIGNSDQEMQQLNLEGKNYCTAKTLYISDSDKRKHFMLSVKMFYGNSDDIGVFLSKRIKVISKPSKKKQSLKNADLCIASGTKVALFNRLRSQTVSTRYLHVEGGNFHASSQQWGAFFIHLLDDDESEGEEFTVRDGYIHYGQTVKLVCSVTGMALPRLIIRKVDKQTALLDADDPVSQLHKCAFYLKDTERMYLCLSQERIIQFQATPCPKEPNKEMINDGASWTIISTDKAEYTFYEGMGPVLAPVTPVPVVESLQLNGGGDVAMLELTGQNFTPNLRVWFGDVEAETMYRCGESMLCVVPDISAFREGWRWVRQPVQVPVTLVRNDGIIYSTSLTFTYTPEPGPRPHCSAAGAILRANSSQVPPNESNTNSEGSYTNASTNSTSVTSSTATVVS
UniProt Q5T481: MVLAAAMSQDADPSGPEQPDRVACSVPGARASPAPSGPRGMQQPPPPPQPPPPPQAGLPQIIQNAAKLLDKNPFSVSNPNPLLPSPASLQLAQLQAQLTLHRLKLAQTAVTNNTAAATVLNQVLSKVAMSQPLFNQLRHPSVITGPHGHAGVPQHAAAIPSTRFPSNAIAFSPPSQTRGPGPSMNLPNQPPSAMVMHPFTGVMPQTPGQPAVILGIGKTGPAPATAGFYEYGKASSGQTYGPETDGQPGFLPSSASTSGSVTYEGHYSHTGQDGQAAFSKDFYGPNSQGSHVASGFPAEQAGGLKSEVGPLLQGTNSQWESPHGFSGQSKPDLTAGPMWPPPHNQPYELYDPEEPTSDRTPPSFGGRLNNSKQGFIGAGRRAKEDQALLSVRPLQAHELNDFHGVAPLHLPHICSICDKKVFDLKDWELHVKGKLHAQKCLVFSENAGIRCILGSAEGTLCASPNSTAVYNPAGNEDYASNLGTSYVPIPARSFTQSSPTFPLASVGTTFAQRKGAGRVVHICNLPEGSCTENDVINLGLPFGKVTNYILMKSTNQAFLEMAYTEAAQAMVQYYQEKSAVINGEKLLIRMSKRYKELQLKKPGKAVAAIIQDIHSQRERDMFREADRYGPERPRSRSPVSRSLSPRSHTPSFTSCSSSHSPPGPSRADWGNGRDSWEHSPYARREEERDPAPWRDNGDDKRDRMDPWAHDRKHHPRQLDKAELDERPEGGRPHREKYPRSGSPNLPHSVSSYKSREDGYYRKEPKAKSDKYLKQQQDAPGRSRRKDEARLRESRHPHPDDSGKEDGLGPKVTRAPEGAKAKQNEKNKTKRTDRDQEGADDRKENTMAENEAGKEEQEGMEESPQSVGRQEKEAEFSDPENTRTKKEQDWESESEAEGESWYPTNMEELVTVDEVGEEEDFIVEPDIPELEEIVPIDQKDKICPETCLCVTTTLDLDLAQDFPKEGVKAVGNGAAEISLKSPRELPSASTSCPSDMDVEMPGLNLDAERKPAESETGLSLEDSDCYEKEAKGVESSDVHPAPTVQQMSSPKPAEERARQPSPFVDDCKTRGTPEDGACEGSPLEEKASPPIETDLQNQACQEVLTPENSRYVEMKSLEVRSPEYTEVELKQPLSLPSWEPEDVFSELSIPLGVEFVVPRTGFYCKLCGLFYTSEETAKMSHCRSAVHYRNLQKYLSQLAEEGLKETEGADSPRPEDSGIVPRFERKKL
UniProt P48378: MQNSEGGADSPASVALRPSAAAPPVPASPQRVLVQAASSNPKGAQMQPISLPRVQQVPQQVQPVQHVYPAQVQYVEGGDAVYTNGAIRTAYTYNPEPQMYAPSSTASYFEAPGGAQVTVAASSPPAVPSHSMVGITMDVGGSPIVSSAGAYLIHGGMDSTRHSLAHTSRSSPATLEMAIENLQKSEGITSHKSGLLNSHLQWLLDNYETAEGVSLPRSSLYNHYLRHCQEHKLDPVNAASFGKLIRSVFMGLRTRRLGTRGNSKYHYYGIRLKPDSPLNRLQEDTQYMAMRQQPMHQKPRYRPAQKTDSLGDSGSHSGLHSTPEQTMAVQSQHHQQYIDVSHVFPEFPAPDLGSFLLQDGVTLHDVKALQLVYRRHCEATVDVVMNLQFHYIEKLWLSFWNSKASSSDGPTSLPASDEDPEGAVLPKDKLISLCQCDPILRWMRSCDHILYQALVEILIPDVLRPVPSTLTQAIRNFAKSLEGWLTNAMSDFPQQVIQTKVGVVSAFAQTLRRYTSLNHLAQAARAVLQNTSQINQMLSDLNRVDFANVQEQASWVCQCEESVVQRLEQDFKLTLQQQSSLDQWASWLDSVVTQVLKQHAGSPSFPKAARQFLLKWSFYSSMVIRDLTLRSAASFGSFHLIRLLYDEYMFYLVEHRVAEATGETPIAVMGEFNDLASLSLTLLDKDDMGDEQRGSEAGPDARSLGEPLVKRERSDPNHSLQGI
UniProt Q9HBD1: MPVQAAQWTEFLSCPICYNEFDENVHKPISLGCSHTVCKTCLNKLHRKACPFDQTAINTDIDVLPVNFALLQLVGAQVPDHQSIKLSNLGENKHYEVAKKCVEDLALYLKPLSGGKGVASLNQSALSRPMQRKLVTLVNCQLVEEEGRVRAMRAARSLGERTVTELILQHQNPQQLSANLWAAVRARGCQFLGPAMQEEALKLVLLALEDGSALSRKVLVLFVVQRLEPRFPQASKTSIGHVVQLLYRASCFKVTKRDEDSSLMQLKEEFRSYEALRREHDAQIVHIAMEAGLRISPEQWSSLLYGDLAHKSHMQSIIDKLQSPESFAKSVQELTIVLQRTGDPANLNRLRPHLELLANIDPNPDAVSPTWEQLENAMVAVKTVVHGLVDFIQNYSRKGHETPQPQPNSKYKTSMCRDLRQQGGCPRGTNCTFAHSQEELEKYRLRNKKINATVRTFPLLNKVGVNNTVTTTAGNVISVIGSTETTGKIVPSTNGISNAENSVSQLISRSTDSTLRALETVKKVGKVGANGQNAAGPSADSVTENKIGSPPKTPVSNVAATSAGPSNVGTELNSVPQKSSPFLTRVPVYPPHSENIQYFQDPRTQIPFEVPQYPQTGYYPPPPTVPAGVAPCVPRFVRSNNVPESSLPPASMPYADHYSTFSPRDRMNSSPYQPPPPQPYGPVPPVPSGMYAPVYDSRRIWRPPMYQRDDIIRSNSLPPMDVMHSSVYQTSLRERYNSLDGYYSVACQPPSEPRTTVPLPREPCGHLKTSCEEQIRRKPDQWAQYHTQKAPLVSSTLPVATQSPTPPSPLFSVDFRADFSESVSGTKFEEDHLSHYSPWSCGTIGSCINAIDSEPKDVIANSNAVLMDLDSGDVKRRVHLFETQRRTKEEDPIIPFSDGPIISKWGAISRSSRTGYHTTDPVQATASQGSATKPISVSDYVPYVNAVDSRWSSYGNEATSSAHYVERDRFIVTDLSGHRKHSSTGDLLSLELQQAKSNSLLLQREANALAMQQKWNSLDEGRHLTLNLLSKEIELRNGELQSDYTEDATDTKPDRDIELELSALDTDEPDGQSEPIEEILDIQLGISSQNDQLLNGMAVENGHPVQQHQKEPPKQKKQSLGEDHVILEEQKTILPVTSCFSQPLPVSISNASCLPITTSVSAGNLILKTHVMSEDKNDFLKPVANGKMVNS

[2] = compound: C/C(=N\NC(=O)C1=CC(=CC=C1)S(=O)(=O)N2CCOCC2)/C3=C(C=CC(=C3)Cl)O
Procedure, shortened: as §1

[3] = compound: C1=CC(=CC=C1C2=NC3=C(N2)C=C(C=C3)C(=O)N)OC4=CC=C(C=C4)Cl
Procedure, shortened: as §1

[4] = compound: C1=CC2=C(C=CC(=C2)/C=C\3/C(=O)NC(=NCC4=CC=CS4)S3)N=C1
Procedure, shortened: as §1

[5] = compound: C1=CC2=NC=CN=C2C=C1/C=C/3\C(=O)NC(=O)S3
Procedure, shortened: as §1

[6] = compound: C1=CC=C(C=C1)C2=NC(=C(N2)C3=CC=NC=C3)C4=CC(=C(C=C4)Cl)O
Procedure, shortened: as §1

[7] = compound: C1=CC=C2C(=C1)C3=NNC4=CC=CC(=C43)C2=O
Procedure, shortened: as §1

[8] = compound: C1CCN(C1)C(=O)NC2=CC=CC(=C2)NC3=NC=C(C(=N3)NCCC4=CN=CN4)Br
Procedure, shortened: as §1

[9] = compound: C1CN(CCC1(CC2=CC=C(C=C2)Cl)N)C3=NC=NC4=C3C=CN4
Procedure, shortened: as §1

[10] = compound: C1COCCN1CCN2C3=CC=CC=C3N=C2NC(=O)C4=CC(=CC=C4)[N+](=O)[O-] [IRAK-1-4 Inhibitor I]
Procedure, shortened: as §1

Measured: log2 fold change

REEP4 (UniProt Q9H6H4)
inactive: [1] 0.009 | [2] 0.018 | [3] 0.043 | [4] 0.02 | [5] 0.043 | [6] -0.028 | [7] -0.059 | [8] -0.042 | [9] 0.058 | [10] 0.012

RERE (UniProt Q9P2R6)
inactive: [1] 0.013 | [2] -0.058 | [3] -0.008 | [4] -0.017 | [5] -0.041 | [6] 0.008 | [7] -0.022 | [8] 0.031 | [9] -0.034 | [10] -0.039

RBM14 (UniProt Q96PK6)
inactive: [1] 0.005 | [2] 0.114 | [3] 0.013 | [4] -0.003 | [5] 0.06 | [6] -0.08 | [7] -0.056 | [8] 0.003 | [9] -0.051 | [10] -0.009

RFC4 (UniProt P35249)
inactive: [1] 0.006 | [2] 0.027 | [3] -0.033 | [4] -0.027 | [5] 0.018 | [6] 0.007 | [7] -0.056 | [8] -0.022 | [9] -0.012 | [10] -0.018

RBM25 (UniProt P49756)
inactive: [1] 0 | [2] -0.023 | [3] 0.1 | [4] -0.006 | [5] -0.036 | [6] -0.064 | [7] -0.045 | [8] -0.027 | [9] 0.024 | [10] 0.031

RDH10 (UniProt Q8IZV5)
inactive: [1] 0.043 | [2] 0.001 | [3] -0.019 | [4] 0.087 | [5] -0.028 | [6] -0.022 | [7] -0.013 | [8] 0.024 | [9] -0.023 | [10] 0.001

REEP3 (UniProt Q6NUK4)
inactive: [1] 0.017 | [2] -0.049 | [3] 0.016 | [4] 0.015 | [5] -0.123 | [6] 0.043 | [7] -0.003 | [10] -0.05

RCN3 (UniProt Q96D15)
inactive: [1] 0.01 | [2] 0.049 | [3] -0.016 | [4] -0.064 | [5] -0.009 | [6] -0.014 | [7] -0.057 | [8] -0.03 | [9] 0.01 | [10] 0.023

RBM28 (UniProt Q9NW13)
inactive: [1] -0.047 | [2] -0.01 | [3] -0.062 | [4] -0.019 | [5] -0.007 | [6] 0.011 | [7] 0.027 | [8] -0.021 | [9] -0.024 | [10] -0.032

Reprinted from the results shown (8 entries):
REEP4 (UniProt Q9H6H4)
inactive: [1] 0.009 | [2] 0.018 | [3] 0.043 | [4] 0.02 | [5] 0.043 | [6] -0.028 | [7] -0.059 | [8] -0.042 | [9] 0.058 | [10] 0.012

RERE (UniProt Q9P2R6)
inactive: [1] 0.013 | [2] -0.058 | [3] -0.008 | [4] -0.017 | [5] -0.041 | [6] 0.008 | [7] -0.022 | [8] 0.031 | [9] -0.034 | [10] -0.039

RBM14 (UniProt Q96PK6)
inactive: [1] 0.005 | [2] 0.114 | [3] 0.013 | [4] -0.003 | [5] 0.06 | [6] -0.08 | [7] -0.056 | [8] 0.003 | [9] -0.051 | [10] -0.009

RFC4 (UniProt P35249)
inactive: [1] 0.006 | [2] 0.027 | [3] -0.033 | [4] -0.027 | [5] 0.018 | [6] 0.007 | [7] -0.056 | [8] -0.022 | [9] -0.012 | [10] -0.018

RBM25 (UniProt P49756)
inactive: [1] 0 | [2] -0.023 | [3] 0.1 | [4] -0.006 | [5] -0.036 | [6] -0.064 | [7] -0.045 | [8] -0.027 | [9] 0.024 | [10] 0.031

RDH10 (UniProt Q8IZV5)
inactive: [1] 0.043 | [2] 0.001 | [3] -0.019 | [4] 0.087 | [5] -0.028 | [6] -0.022 | [7] -0.013 | [8] 0.024 | [9] -0.023 | [10] 0.001

REEP3 (UniProt Q6NUK4)
inactive: [1] 0.017 | [2] -0.049 | [3] 0.016 | [4] 0.015 | [5] -0.123 | [6] 0.043 | [7] -0.003 | [10] -0.05

RCN3 (UniProt Q96D15)
inactive: [1] 0.01 | [2] 0.049 | [3] -0.016 | [4] -0.064 | [5] -0.009 | [6] -0.014 | [7] -0.057 | [8] -0.03 | [9] 0.01 | [10] 0.023

(listing goes on)

RFXANK (UniProt O14593)
inactive: [1] -0.005 | [2] 0.022 | [3] -0.011 | [4] 0.027 | [5] -0.017 | [6] -0.017 | [7] 0.06 | [8] 0.016 | [9] 0.002 | [10] -0.034

REXO5 (UniProt Q96IC2)
inactive: [1] 0.027 | [2] -0.06 | [3] 0.029 | [4] -0.034 | [5] -0.021 | [6] 0.021 | [7] 0.021 | [8] -0.057 | [9] -0.02 | [10] -0.011

RGS10 (UniProt O43665)
inactive: [1] 0.006 | [2] -0.013 | [3] 0.026 | [4] -0.006 | [5] 0.002 | [6] 0.002 | [7] 0.057 | [8] -0.007 | [9] -0.003 | [10] 0.018

RBM3 (UniProt P98179)
inactive: [1] -0.031 | [2] -0.023 | [3] -0.067 | [4] -0.013 | [5] 0.044 | [6] 0.016 | [7] 0.055 | [8] 0.109 | [9] -0.044 | [10] -0.001

RBM38 (UniProt Q9H0Z9)
inactive: [1] -0.035 | [2] 0.031 | [3] 0.04 | [4] -0.01 | [6] -0.197 | [7] 0.037 | [8] -0.028 | [9] 0.095 | [10] 0.056

RCOR1 (UniProt Q9UKL0)
inactive: [1] -0.023 | [2] 0.065 | [3] -0.004 | [4] -0.053 | [5] -0.051 | [6] 0.005 | [7] -0.035 | [8] -0.008 | [9] 0.017 | [10] 0.003

RDH14 (UniProt Q9HBH5)
inactive: [1] -0.019 | [2] 0.021 | [3] -0.056 | [4] -0.049 | [5] 0.037 | [6] 0.021 | [7] 0.024 | [8] 0.036 | [9] -0.057 | [10] 0.018

RBM22 (UniProt Q9NW64)
inactive: [1] 0.028 | [2] -0.005 | [3] 0.025 | [4] -0.07 | [5] 0.013 | [6] -0.034 | [7] -0.021 | [8] -0.02 | [9] 0.009 | [10] 0.018

RETREG2 (UniProt Q8NC44)
inactive: [1] -0.08 | [2] 0.036 | [3] -0.115 | [4] -0.055 | [5] 0.049 | [6] 0.035 | [7] -0.063 | [8] 0.022 | [9] 0.075 | [10] 0.106

RBM4 (UniProt Q9BWF3)
inactive: [1] -0.031 | [2] 0.059 | [3] -0.008 | [4] 0.009 | [5] 0.008 | [6] -0.065 | [7] -0.008 | [8] 0.001 | [9] 0 | [10] -0.003

RBM19 (UniProt Q9Y4C8)
inactive: [1] -0.042 | [2] 0.005 | [3] 0.02 | [4] 0.011 | [5] 0.036 | [6] 0.003 | [7] -0.039 | [8] -0.003 | [9] -0.027 | [10] -0.03

RBBP4 (UniProt Q09028)
inactive: [1] -0.007 | [2] 0.013 | [3] 0 | [4] -0.021 | [5] 0 | [6] 0.021 | [7] 0.02 | [8] 0.019 | [9] -0.001 | [10] 0.051

RCOR3 isoform 3 (UniProt Q9P2K3)
inactive: [1] -0.033 | [2] 0.025 | [3] 0.022 | [4] 0.009 | [5] -0.006 | [6] -0.017 | [7] -0.012 | [8] -0.02 | [9] -0.015 | [10] -0.015

RBPJ (UniProt Q06330)
inactive: [1] -0.009 | [2] -0.126 | [3] -0.005 | [4] 0.067 | [5] -0.016 | [6] -0.044 | [7] -0.027 | [8] -0.018 | [9] -0.032 | [10] 0.022

REXO2 (UniProt Q9Y3B8)
inactive: [1] -0.005 | [2] 0.007 | [3] -0.026 | [4] -0.025 | [5] -0.005 | [6] 0.017 | [7] 0.03 | [8] 0.024 | [9] 0.001 | [10] -0.005

RBP5 (UniProt P82980)
inactive: [1] 0.037 | [2] 0.029 | [3] -0.11 | [4] 0.101 | [6] 0.077 | [7] 0.139 | [8] -0.055 | [9] -0.144 | [10] 0

RBM20 (UniProt Q5T481)
inactive: [1] 0.052 | [2] -0.442 | [3] 0.002 | [4] -0.236 | [5] -0.157 | [6] -0.181 | [7] -0.393 | [10] 0.263

RELCH isoform 2 (UniProt Q9P260)
inactive: [1] 0.027 | [2] -0.06 | [3] 0.031 | [4] -0.128 | [5] -0.015 | [6] -0.053 | [7] 0.021 | [8] -0.009 | [9] 0.034 | [10] -0.046

RBL1 (UniProt P28749)
inactive: [1] 0.088 | [2] 0.084 | [3] 0.033 | [4] 0.07 | [5] 0.039 | [6] -0.01 | [7] -0.054 | [8] -0.044 | [9] 0.076 | [10] -0.017

RBBP5 isoform 2 (UniProt Q15291)
inactive: [2] 0.081 | [4] 0.057 | [5] -0.01 | [6] 0.166 | [7] 0.116 | [8] 0.206 | [9] 0.121 | [10] -0.282

RFX2 (UniProt P48378)
inactive: [5] 0.208

RC3H2 (UniProt Q9HBD1)
inactive: [2] -0.033 | [4] 0.126 | [6] -0.101 | [7] -0.052 | [8] -0.203 | [9] -0.315 | [10] 0.024

REXO1 (UniProt Q8N1G1)
inactive: [1] -0.154 | [3] -0.03 | [5] -0.004 | [6] 0.039 | [10] -0.007

RDH11 (UniProt Q8TC12)
inactive: [1] 0.018 | [2] 0.087 | [3] -0.02 | [4] 0.015 | [6] 0.006 | [7] -0.065 | [8] -0.037 | [9] 0.063 | [10] 0.012

RGCC (UniProt Q9H4X1)
inactive: [1] -0.108 | [2] 0.188 | [3] -0.096 | [4] -0.118 | [6] -0.013 | [7] 0.009 | [10] 0.125

Reference: the supplement of paper PMC10849652
